Assay results as given in patent publication US20160102336A1, “FLUORESCENT PROBE FOR DETECTING ACTIVITY OF CALPAIN” (THE UNIVERSITY OF TOKYO, priority 2013, published 2016).

System: HeLa cells
Assay: Intracellular localization of dye (costaining with LysoTracker)
Type: cell-based
Settings: costaining with LysoTracker Green DND 26 (50 nM), Suc-LLVY-SiR600 2 μM, 2Me SiR600 50 μM

Compound	intracellular localization
2Me SiR600 [reference compound]	accumulates in lysosomes in cells
Cc1ccccc1C1=C2C=CC(=N)C=C2[Si](C)(C)c2cc(NC(=O)[C@H](Cc3ccc(O)cc3)NC(=O)[C@@H](NC(=O)[C@H](CC(C)C)NC(=O)[C@H](CC(C)C)NC(=O)CCC(=O)O)C(C)C)ccc21 [Suc-LLVY-SiR600] (Suc-LLVY-X1)	shows intracellular localization in similar fashion to the lysosomal localization dye LysoTracker

*1 amine or outer side, *2 acyl side, *3 side chain or, on linkers, in order; H or OH if unused. Where a SMILES comes first, the peptide text is derived from it. The star is where a group is joined. X1 = Cc1ccccc1C1=C2C=CC(=N)C=C2[Si](C)(C)c2cc(N*)ccc21; Suc = O=C(CCC(=O)[*:2])[*:1]
